No constants are given. Whether binding was seen depends on the method and setting. Binding seen in cells or lysates may run through a third protein. Some entries that bind do so weakly or less than the wild type. For part of these data: Tags and fused reporters may be left off the sequences shown.
Legend:
[1] = target: T1, FLAG-tagged human ZBP1 (Flag-hZBP1) (human), Q9H171; assay: co-IP; conditions: remark: other sources report otherwise
T1 chain: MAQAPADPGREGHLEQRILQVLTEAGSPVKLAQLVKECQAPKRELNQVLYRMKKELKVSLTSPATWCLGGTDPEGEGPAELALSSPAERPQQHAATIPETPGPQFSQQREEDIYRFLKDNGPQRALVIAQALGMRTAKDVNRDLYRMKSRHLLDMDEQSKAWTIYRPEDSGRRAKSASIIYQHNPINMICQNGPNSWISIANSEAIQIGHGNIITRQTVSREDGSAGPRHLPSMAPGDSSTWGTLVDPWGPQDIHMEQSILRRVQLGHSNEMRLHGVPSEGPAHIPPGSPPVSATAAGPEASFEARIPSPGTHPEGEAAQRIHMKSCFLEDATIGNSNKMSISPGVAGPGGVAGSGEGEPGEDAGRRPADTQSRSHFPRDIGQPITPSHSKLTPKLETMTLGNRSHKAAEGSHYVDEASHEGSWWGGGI

[2] = target: T2, mouse ZBP1 (mZBP1) expressed in HT29 cells (mouse), Q9QY24; assay: co-IP; conditions: remark: other sources report otherwise
T2 chain: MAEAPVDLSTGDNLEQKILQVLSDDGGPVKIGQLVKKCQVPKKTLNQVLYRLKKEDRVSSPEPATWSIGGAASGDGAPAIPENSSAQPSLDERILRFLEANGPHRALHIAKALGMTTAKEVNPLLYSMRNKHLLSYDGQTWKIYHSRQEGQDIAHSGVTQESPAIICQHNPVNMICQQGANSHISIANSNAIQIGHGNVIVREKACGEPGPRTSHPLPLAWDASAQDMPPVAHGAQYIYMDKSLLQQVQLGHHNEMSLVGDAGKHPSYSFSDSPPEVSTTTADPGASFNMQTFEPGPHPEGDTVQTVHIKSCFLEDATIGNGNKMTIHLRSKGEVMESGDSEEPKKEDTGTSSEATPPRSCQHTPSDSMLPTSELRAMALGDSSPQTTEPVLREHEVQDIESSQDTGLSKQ

B1: RIPK1 (human, endogenous), Q13546 1-671 (protein)
chain: MQPDMSLNVIKMKSSDFLESAELDSGGFGKVSLCFHRTQGLMIMKTVYKGPNCIEHNEALLEEAKMMNRLRHSRVVKLLGVIIEEGKYSLVMEYMEKGNLMHVLKAEMSTPLSVKGRIILEIIEGMCYLHGKGVIHKDLKPENILVDNDFHIKIADLGLASFKMWSKLNNEEHNELREVDGTAKKNGGTLYYMAPEHLNDVNAKPTEKSDVYSFAVVLWAIFANKEPYENAICEQQLIMCIKSGNRPDVDDITEYCPREIISLMKLCWEANPEARPTFPGIEEKFRPFYLSQLEESVEEDVKSLKKEYSNENAVVKRMQSLQLDCVAVPSSRSNSATEQPGSLHSSQGLGMGPVEESWFAPSLEHPQEENEPSLQSKLQDEANYHLYGSRMDRQTKQQPRQNVAYNREEERRRRVSHDPFAQQRPYENFQNTEGKGTAYSSAASHGNAVHQPSGLTSQPQVLYQNNGLYSSHGFGTRPLDPGTAGPRVWYRPIPSHMPSLHNIPVPETNYLGNTPTMPFSSLPPTDESIKYTIYNSTGIQIGAYNYMEIGGTSSSLLDSTNTNFKEEPAAKYQAIFDNTTSLTDKHLDPIRENLGKHWKNCARKLGFTQSQIDEIDHDYERDGLKEKVYQMLQKWVMREGIKGATVGKLAQALHQCSRIDLLSSLIYVSQN
binding [1]: binds | binding [2]: binds

B2: RIPK3 (human, endogenous), Q9Y572 1-518 (protein)
chain: MSCVKLWPSGAPAPLVSIEELENQELVGKGGFGTVFRAQHRKWGYDVAVKIVNSKAISREVKAMASLDNEFVLRLEGVIEKVNWDQDPKPALVTKFMENGSLSGLLQSQCPRPWPLLCRLLKEVVLGMFYLHDQNPVLLHRDLKPSNVLLDPELHVKLADFGLSTFQGGSQSGTGSGEPGGTLGYLAPELFVNVNRKASTASDVYSFGILMWAVLAGREVELPTEPSLVYEAVCNRQNRPSLAELPQAGPETPGLEGLKELMQLCWSSEPKDRPSFQECLPKTDEVFQMVENNMNAAVSTVKDFLSQLRSSNRRFSIPESGQGGTEMDGFRRTIENQHSRNDVMVSEWLNKLNLEEPPSSVPKKCPSLTKRSRAQEEQVPQAWTAGTSSDSMAQPPQTPETSTFRNQMPSPTSTGTPSPGPRGNQGAERQGMNWSCRTPEPNPVTGRPLVNIYNCSGVQVGDNNYLTMQQTTALPTWGLAPSGKGRGLQHPPPVGSQEGPKDPEAWSRPQGWYNHSGK
binding [2]: binds

— doi:10.1101/2024.09.17.613393
